Data on three molecules can be found in article doi:10.1101/2024.11.13.623339.

These are yes or no findings as the source states them, for the method shown. In cells and extracts the contact can be indirect. Some entries that bind do so weakly or less than the wild type. Tags and fused reporters may be left off the sequences shown.

Experiment [1] has as its target T1, ATP9B, tagged at the C-terminus with HA or FLAG (UniProt O43861).
T1 sequence: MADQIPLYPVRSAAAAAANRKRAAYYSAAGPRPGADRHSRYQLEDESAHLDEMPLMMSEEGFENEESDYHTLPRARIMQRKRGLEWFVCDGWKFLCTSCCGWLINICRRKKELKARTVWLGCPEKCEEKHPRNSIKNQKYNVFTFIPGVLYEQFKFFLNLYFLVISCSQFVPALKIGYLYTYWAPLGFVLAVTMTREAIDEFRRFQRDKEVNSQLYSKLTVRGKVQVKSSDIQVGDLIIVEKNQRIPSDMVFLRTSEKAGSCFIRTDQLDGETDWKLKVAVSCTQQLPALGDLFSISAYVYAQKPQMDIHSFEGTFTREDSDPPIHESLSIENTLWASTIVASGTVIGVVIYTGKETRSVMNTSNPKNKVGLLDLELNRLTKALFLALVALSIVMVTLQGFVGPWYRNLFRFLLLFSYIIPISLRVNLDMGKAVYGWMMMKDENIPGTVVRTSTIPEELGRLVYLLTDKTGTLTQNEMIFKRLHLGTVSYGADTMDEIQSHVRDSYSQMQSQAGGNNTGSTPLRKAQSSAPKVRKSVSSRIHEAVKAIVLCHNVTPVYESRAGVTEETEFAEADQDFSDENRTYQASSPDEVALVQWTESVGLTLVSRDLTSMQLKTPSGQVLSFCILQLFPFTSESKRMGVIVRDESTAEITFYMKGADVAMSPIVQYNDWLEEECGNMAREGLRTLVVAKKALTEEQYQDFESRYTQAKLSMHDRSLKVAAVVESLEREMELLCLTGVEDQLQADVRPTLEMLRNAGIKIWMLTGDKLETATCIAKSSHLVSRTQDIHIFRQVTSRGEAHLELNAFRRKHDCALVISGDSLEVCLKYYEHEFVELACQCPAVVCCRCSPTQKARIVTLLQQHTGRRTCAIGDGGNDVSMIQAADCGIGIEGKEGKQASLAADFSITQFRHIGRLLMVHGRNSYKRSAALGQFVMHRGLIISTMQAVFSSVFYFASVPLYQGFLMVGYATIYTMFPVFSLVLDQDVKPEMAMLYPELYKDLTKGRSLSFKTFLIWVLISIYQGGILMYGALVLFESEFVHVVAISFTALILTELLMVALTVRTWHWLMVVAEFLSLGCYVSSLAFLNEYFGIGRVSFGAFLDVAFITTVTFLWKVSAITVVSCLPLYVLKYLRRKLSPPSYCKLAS
Put plainly: co-IP.

For experiment [2], the target named is T2, ATP9A, tagged at the C-terminus with HA or FLAG (UniProt O75110).
T2 sequence: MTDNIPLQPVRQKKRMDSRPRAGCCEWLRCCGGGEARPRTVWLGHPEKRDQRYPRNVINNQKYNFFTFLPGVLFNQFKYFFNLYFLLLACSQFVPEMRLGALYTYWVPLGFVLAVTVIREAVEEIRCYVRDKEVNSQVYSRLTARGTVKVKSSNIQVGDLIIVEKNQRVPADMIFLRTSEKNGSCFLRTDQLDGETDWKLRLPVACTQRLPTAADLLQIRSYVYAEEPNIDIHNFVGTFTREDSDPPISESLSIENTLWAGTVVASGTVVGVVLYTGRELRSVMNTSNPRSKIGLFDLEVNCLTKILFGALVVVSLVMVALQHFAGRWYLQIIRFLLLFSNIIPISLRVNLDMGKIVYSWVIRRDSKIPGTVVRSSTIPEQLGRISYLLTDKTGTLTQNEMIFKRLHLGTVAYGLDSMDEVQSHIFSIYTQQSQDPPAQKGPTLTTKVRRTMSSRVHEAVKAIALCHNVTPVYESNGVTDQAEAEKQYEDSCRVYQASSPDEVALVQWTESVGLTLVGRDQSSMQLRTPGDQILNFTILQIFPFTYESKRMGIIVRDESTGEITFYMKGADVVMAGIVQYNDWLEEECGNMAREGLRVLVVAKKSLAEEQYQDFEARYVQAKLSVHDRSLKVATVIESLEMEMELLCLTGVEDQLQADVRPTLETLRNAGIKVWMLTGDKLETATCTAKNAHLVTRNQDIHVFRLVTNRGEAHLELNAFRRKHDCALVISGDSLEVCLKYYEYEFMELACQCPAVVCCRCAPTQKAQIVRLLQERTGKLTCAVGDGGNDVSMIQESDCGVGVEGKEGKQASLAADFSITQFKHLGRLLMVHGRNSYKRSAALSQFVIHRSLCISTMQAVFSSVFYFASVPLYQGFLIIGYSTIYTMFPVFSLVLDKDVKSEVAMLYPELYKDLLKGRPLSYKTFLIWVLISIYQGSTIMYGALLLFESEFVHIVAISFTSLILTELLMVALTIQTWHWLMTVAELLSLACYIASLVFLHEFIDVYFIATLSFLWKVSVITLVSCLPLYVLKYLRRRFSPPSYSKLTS
As to the kind of experiment: co-IP.

B1: ATP9B(E272Q), FLAG-tagged ATPase-deficient mutant (protein, UniProt O43861 1-1147)
chain: MADQIPLYPVRSAAAAAANRKRAAYYSAAGPRPGADRHSRYQLEDESAHLDEMPLMMSEEGFENEESDYHTLPRARIMQRKRGLEWFVCDGWKFLCTSCCGWLINICRRKKELKARTVWLGCPEKCEEKHPRNSIKNQKYNVFTFIPGVLYEQFKFFLNLYFLVISCSQFVPALKIGYLYTYWAPLGFVLAVTMTREAIDEFRRFQRDKEVNSQLYSKLTVRGKVQVKSSDIQVGDLIIVEKNQRIPSDMVFLRTSEKAGSCFIRTDQLDGQTDWKLKVAVSCTQQLPALGDLFSISAYVYAQKPQMDIHSFEGTFTREDSDPPIHESLSIENTLWASTIVASGTVIGVVIYTGKETRSVMNTSNPKNKVGLLDLELNRLTKALFLALVALSIVMVTLQGFVGPWYRNLFRFLLLFSYIIPISLRVNLDMGKAVYGWMMMKDENIPGTVVRTSTIPEELGRLVYLLTDKTGTLTQNEMIFKRLHLGTVSYGADTMDEIQSHVRDSYSQMQSQAGGNNTGSTPLRKAQSSAPKVRKSVSSRIHEAVKAIVLCHNVTPVYESRAGVTEETEFAEADQDFSDENRTYQASSPDEVALVQWTESVGLTLVSRDLTSMQLKTPSGQVLSFCILQLFPFTSESKRMGVIVRDESTAEITFYMKGADVAMSPIVQYNDWLEEECGNMAREGLRTLVVAKKALTEEQYQDFESRYTQAKLSMHDRSLKVAAVVESLEREMELLCLTGVEDQLQADVRPTLEMLRNAGIKIWMLTGDKLETATCIAKSSHLVSRTQDIHIFRQVTSRGEAHLELNAFRRKHDCALVISGDSLEVCLKYYEHEFVELACQCPAVVCCRCSPTQKARIVTLLQQHTGRRTCAIGDGGNDVSMIQAADCGIGIEGKEGKQASLAADFSITQFRHIGRLLMVHGRNSYKRSAALGQFVMHRGLIISTMQAVFSSVFYFASVPLYQGFLMVGYATIYTMFPVFSLVLDQDVKPEMAMLYPELYKDLTKGRSLSFKTFLIWVLISIYQGGILMYGALVLFESEFVHVVAISFTALILTELLMVALTVRTWHWLMVVAEFLSLGCYVSSLAFLNEYFGIGRVSFGAFLDVAFITTVTFLWKVSAITVVSCLPLYVLKYLRRKLSPPSYCKLAS
Turning to B1, the binding result in experiment [1] and in experiment [2] was “binds” each time.

B2: ATP9A(E195Q), FLAG-tagged ATPase-deficient mutant (protein, UniProt O75110 1-1047)
chain: MTDNIPLQPVRQKKRMDSRPRAGCCEWLRCCGGGEARPRTVWLGHPEKRDQRYPRNVINNQKYNFFTFLPGVLFNQFKYFFNLYFLLLACSQFVPEMRLGALYTYWVPLGFVLAVTVIREAVEEIRCYVRDKEVNSQVYSRLTARGTVKVKSSNIQVGDLIIVEKNQRVPADMIFLRTSEKNGSCFLRTDQLDGQTDWKLRLPVACTQRLPTAADLLQIRSYVYAEEPNIDIHNFVGTFTREDSDPPISESLSIENTLWAGTVVASGTVVGVVLYTGRELRSVMNTSNPRSKIGLFDLEVNCLTKILFGALVVVSLVMVALQHFAGRWYLQIIRFLLLFSNIIPISLRVNLDMGKIVYSWVIRRDSKIPGTVVRSSTIPEQLGRISYLLTDKTGTLTQNEMIFKRLHLGTVAYGLDSMDEVQSHIFSIYTQQSQDPPAQKGPTLTTKVRRTMSSRVHEAVKAIALCHNVTPVYESNGVTDQAEAEKQYEDSCRVYQASSPDEVALVQWTESVGLTLVGRDQSSMQLRTPGDQILNFTILQIFPFTYESKRMGIIVRDESTGEITFYMKGADVVMAGIVQYNDWLEEECGNMAREGLRVLVVAKKSLAEEQYQDFEARYVQAKLSVHDRSLKVATVIESLEMEMELLCLTGVEDQLQADVRPTLETLRNAGIKVWMLTGDKLETATCTAKNAHLVTRNQDIHVFRLVTNRGEAHLELNAFRRKHDCALVISGDSLEVCLKYYEYEFMELACQCPAVVCCRCAPTQKAQIVRLLQERTGKLTCAVGDGGNDVSMIQESDCGVGVEGKEGKQASLAADFSITQFKHLGRLLMVHGRNSYKRSAALSQFVIHRSLCISTMQAVFSSVFYFASVPLYQGFLIIGYSTIYTMFPVFSLVLDKDVKSEVAMLYPELYKDLLKGRPLSYKTFLIWVLISIYQGSTIMYGALLLFESEFVHIVAISFTSLILTELLMVALTIQTWHWLMTVAELLSLACYIASLVFLHEFIDVYFIATLSFLWKVSVITLVSCLPLYVLKYLRRRFSPPSYSKLTS
As to B2, the binding result in experiment [1] and in experiment [2] was “binds” throughout.

B3: FLAG-tagged ATP11C (protein, UniProt Q8NB49 1-1132)
chain: MQMVPSLPPASECAGEEKRVGTRTVFVGNHPVSETEAYIAQRFCDNRIVSSKYTLWNFLPKNLFEQFRRIANFYFLIIFLVQVTVDTPTSPVTSGLPLFFVITVTAIKQGYEDCLRHRADNEVNKSTVYIIENAKRVRKESEKIKVGDVVEVQADETFPCDLILLSSCTTDGTCYVTTASLDGESNCKTHYAVRDTIALCTAESIDTLRAAIECEQPQPDLYKFVGRINIYSNSLEAVARSLGPENLLLKGATLKNTEKIYGVAVYTGMETKMALNYQGKSQKRSAVEKSINAFLIVYLFILLTKAAVCTTLKYVWQSTPYNDEPWYNQKTQKERETLKVLKMFTDFLSFMVLFNFIIPVSMYVTVEMQKFLGSFFISWDKDFYDEEINEGALVNTSDLNEELGQVDYVFTDKTGTLTENSMEFIECCIDGHKYKGVTQEVDGLSQTDGTLTYFDKVDKNREELFLRALCLCHTVEIKTNDAVDGATESAELTYISSSPDEIALVKGAKRYGFTFLGNRNGYMRVENQRKEIEEYELLHTLNFDAVRRRMSVIVKTQEGDILLFCKGADSAVFPRVQNHEIELTKVHVERNAMDGYRTLCVAFKEIAPDDYERINRQLIEAKMALQDREEKMEKVFDDIETNMNLIGATAVEDKLQDQAAETIEALHAAGLKVWVLTGDKMETAKSTCYACRLFQTNTELLELTTKTIEESERKEDRLHELLIEYRKKLLHEFPKSTRSFKKAWTEHQEYGLIIDGSTLSLILNSSQDSSSNNYKSIFLQICMKCTAVLCCRMAPLQKAQIVRMVKNLKGSPITLSIGDGANDVSMILESHVGIGIKGKEGRQAARNSDYSVPKFKHLKKLLLAHGHLYYVRIAHLVQYFFYKNLCFILPQFLYQFFCGFSQQPLYDAAYLTMYNICFTSLPILAYSLLEQHINIDTLTSDPRLYMKISGNAMLQLGPFLYWTFLAAFEGTVFFFGTYFLFQTASLEENGKVYGNWTFGTIVFTVLVFTVTLKLALDTRFWTWINHFVIWGSLAFYVFFSFFWGGIIWPFLKQQRMYFVFAQMLSSVSTWLAIILLIFISLFPEILLIVLKNVRRRSARRNLSCRRASDSLSARPSVRPLLLRTFSDESNVL
With B3, the binding result in experiment [1] and in experiment [2] was “no binding” in each case.
